# PMC8102066, “Differences in interactions between transmembrane domains tune the activation of metabotropic glutamate receptors” (eLife, 2021)
# These are yes or no findings as the source states them, for the method shown. Some results given as binding are weak or reduced against the parent protein; the word gives no strength. Sequences can lack the tags named with a protein.
# Target: HA-SNAP-mGluR3 (rat), P31422
# Assay: single-molecule pulldown (SiMPull) with photobleaching step counting; HEK 293T cells surface-labelled with BG-LD555, lysed in 1.2% IGEPAL, diluted in 0.1% IGEPAL buffer; HA-SNAP constructs captured by biotinylated anti-HA antibody on NeutrAvidin/PEG slides; TIRF; percent dimerization = two-step bleaching min-max normalised (5% background, 55% for full-length mGluR2); in some experiments saturating ligands (TASP, MNI …)
# Conditions: remark: other sources report otherwise
binder,measurement,value
"HA-SNAP-mGluR3, P31422 23-879 (receptor, here or on the partner: SNAP tag labelled with BG-LD555 (BG-LD655 in two-colour SiMPull); SNAP tag labelled with BG-LD555 (BG-LD655 in two-colour SiMPull)) LGDHNFMRREIKIEGDLVLGGLFPINEKGTGTEECGRINEDRGIQRLEAMLFAIDEINKDNYLLPGVKLGVHILDTCSRDTYALEQSLEFVRASLTKVDEAEYMCPDGSYAIQENIPLLIAGVIGGSYSSVSIQVANLLRLFQIPQISYASTSAKLSDKSRYDYFARTVPPDFYQAKAMAEILRFFNWTYVSTVASEGDYGETGIEAFEQEARLRNICIATAEKVGRSNIRKSYDSVIRELLQKPNARVVVLFMRSDDSRELIAAANRVNASFTWVASDGWGAQESIVKGSEHVAYGAITLELASHPVRQFDRYFQSLNPYNNHRNPWFRDFWEQKFQCSLQNKRNHRQVCDKHLAIDSSNYEQESKIMFVVNAVYAMAHALHKMQRTLCPNTTKLCDAMKILDGKKLYKEYLLKINFTAPFNPNKGADSIVKFDTFGDGMGRYNVFNLQQTGGKYSYLKVGHWAETLSLDVDSIHWSRNSVPTSQCSDPCAPNEMKNMQPGDVCCWICIPCEPYEYLVDEFTCMDCGPGQWPTADLSGCYNLPEDYIKWEDAWAIGPVTIACLGFLCTCIVITVFIKHNNTPLVKASGRELCYILLFGVSLSYCMTFFFIAKPSPVICALRRLGLGTSFAICYSALLTKTNCIARIFDGVKNGAQRPKFISPSSQVFICLGLILVQIVMVSVWLILETPGTRRYTLPEKRETVILKCNVKDSSMLISLTYDVVLVILCTVYAFKTRKCPENFNEAKFIGFTMYTTCIIWLAFLPIFYVTSSDYRVQTTTMCISVSLSGFVVLGCLFAPKVHIVLFQPQKNVVTHRLHLNRFSVSGTATTYSQSSASTYVPTVCNGREVLDSTTSSL",binding,binds
